From article PMC7364817
Results are given in words; binding and its absence hold for the method and conditions named. In cells and extracts the contact can be indirect. These calls come from enrichment with a bait or labelling near it, and not all partners need be listed. Sequences can lack the tags named with a protein.

The chains behind the UniProt entries cited, without tags or fusion partners.
UniProt P62191: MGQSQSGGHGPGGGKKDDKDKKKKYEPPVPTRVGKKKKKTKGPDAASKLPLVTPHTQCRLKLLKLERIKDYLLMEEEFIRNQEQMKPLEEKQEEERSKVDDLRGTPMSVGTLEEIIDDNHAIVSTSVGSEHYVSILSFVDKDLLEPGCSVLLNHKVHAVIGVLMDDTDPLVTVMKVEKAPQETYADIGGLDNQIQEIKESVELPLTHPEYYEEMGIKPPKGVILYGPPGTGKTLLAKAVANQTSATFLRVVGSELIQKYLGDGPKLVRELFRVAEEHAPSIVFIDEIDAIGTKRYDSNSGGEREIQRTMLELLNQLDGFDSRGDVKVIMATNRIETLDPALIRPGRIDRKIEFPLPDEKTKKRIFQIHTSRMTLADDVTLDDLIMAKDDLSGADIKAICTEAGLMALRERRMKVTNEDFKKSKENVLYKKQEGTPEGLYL
UniProt P52701: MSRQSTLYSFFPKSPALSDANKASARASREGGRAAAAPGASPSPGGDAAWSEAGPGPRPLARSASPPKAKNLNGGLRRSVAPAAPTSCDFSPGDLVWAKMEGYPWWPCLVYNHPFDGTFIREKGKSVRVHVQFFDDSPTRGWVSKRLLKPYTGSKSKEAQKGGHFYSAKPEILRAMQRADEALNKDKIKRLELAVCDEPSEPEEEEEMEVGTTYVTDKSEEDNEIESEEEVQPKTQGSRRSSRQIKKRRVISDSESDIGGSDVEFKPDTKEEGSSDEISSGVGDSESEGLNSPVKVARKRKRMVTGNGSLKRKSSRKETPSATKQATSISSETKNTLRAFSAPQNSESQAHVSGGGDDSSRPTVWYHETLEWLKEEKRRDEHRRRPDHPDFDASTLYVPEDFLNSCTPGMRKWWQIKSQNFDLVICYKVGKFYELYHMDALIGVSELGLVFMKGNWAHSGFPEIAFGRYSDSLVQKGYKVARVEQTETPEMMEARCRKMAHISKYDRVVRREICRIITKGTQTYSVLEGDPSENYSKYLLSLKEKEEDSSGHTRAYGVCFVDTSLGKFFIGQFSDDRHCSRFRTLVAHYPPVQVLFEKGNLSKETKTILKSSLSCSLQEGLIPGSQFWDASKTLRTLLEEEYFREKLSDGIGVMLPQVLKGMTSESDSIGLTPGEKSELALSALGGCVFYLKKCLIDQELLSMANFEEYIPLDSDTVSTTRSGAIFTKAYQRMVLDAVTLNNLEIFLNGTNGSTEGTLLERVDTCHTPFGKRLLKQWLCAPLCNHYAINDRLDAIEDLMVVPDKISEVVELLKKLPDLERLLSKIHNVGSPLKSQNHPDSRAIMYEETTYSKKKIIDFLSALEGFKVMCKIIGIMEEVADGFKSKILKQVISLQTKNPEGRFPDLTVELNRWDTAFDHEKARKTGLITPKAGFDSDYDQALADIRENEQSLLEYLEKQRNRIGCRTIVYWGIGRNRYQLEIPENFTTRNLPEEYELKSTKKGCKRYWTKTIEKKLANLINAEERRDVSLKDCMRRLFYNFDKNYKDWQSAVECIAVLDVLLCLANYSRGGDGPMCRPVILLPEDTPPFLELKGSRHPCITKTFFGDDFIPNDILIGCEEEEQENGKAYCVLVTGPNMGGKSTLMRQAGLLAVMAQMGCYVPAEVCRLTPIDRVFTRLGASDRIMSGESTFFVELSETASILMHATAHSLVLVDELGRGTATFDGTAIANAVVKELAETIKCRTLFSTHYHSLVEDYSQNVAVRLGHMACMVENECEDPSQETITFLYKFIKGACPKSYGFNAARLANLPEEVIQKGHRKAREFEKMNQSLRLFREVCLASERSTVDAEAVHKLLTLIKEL
UniProt Q13409: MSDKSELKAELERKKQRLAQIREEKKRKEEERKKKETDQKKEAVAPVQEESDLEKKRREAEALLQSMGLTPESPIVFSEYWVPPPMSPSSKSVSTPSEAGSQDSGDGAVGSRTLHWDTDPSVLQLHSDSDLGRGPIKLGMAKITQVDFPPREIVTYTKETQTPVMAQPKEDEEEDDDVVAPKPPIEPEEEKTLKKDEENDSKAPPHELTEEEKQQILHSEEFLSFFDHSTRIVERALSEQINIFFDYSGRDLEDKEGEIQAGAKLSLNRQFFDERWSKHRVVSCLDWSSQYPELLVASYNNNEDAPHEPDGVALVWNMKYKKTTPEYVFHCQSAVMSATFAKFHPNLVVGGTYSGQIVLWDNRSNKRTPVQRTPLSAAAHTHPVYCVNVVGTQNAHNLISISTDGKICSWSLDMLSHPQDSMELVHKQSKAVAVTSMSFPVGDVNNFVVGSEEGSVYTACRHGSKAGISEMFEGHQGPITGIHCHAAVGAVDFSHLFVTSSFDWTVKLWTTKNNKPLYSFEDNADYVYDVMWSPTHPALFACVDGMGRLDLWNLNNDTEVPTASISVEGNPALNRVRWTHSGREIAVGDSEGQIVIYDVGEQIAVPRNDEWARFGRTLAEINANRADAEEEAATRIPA
UniProt Q96N67: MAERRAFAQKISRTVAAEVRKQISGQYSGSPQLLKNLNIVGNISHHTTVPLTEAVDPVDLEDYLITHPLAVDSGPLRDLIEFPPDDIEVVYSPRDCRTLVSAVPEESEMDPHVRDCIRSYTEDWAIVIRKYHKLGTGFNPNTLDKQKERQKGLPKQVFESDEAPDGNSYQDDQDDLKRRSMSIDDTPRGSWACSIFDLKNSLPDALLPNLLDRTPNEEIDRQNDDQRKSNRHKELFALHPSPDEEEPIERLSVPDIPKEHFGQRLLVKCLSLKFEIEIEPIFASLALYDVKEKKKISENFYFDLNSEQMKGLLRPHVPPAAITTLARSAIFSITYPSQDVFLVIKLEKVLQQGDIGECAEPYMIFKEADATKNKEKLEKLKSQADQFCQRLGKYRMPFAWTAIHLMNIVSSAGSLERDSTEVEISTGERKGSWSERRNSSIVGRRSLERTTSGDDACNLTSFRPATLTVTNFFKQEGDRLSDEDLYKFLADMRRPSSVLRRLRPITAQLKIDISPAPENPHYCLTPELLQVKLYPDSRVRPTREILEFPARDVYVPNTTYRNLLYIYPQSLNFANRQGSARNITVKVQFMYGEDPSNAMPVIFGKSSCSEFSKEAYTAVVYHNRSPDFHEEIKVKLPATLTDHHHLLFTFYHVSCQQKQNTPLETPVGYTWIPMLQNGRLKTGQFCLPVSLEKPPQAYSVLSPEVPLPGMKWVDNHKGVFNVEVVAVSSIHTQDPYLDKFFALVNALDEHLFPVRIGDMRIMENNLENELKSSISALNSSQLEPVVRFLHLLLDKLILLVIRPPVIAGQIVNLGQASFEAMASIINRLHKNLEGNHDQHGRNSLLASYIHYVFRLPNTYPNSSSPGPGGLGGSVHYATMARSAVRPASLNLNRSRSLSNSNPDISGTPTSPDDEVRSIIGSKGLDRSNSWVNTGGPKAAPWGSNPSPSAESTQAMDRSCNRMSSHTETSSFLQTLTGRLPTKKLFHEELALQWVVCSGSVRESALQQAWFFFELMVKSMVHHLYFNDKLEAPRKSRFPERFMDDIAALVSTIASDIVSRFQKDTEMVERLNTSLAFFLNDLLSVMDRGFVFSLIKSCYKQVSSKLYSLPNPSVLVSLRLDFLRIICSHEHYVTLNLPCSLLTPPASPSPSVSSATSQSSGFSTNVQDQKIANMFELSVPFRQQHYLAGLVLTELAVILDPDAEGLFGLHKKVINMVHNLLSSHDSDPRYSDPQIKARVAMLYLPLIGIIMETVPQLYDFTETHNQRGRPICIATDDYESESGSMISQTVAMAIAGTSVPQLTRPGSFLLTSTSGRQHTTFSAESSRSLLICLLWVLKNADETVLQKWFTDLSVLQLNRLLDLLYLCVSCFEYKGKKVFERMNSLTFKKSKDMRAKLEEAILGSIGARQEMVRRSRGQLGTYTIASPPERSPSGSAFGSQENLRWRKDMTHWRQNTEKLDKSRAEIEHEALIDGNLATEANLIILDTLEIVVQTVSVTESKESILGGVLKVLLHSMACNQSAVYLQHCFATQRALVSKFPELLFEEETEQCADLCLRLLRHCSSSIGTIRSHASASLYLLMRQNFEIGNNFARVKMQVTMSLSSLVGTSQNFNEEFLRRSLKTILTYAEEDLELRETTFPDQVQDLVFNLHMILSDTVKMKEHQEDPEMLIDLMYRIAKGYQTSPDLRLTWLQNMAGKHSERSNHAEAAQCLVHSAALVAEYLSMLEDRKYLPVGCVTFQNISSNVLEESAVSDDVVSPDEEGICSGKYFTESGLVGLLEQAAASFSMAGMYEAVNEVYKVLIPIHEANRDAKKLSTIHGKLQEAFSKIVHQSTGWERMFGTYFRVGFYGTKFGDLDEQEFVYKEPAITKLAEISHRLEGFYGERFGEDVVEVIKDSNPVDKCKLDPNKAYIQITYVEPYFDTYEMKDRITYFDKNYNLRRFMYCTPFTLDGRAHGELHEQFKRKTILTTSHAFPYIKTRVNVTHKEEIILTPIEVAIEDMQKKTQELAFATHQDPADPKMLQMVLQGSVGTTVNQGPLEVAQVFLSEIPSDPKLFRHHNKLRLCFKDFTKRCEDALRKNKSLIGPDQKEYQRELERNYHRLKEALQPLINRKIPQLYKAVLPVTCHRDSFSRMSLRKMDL
UniProt P53621: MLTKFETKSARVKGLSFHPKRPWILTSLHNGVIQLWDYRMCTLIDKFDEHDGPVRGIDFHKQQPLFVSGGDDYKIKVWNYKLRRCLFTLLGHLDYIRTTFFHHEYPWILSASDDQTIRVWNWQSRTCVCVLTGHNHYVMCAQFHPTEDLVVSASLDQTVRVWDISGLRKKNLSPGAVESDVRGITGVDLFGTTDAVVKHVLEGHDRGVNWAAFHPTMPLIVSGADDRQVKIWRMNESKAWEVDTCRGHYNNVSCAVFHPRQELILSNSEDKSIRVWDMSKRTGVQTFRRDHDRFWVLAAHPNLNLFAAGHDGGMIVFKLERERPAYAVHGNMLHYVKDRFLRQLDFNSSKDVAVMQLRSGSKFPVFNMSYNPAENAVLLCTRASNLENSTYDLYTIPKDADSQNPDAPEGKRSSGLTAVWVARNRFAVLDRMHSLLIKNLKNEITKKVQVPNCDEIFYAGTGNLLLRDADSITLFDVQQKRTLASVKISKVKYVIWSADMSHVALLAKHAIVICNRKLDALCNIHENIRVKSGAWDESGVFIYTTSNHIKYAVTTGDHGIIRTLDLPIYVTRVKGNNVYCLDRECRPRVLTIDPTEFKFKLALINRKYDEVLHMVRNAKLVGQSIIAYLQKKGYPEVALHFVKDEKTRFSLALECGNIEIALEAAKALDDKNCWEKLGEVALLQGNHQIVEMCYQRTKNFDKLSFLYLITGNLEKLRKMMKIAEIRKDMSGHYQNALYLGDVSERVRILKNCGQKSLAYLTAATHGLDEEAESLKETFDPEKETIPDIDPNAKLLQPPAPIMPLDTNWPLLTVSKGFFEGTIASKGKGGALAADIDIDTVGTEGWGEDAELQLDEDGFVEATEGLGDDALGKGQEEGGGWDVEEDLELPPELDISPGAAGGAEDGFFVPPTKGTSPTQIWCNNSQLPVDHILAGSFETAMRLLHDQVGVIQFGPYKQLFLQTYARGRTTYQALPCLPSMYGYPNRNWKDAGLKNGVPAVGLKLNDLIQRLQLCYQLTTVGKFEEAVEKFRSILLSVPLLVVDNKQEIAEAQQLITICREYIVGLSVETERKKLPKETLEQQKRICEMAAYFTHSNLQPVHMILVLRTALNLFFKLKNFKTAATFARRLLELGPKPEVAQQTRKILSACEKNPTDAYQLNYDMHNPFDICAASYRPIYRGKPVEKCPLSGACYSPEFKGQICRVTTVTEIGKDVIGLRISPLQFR
UniProt P28066: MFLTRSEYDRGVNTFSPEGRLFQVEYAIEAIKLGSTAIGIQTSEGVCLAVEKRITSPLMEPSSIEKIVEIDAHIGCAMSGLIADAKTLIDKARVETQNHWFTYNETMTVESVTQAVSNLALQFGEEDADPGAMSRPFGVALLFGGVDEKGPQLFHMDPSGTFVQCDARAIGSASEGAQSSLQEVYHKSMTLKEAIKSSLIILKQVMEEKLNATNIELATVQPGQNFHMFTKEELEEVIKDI
UniProt P25685: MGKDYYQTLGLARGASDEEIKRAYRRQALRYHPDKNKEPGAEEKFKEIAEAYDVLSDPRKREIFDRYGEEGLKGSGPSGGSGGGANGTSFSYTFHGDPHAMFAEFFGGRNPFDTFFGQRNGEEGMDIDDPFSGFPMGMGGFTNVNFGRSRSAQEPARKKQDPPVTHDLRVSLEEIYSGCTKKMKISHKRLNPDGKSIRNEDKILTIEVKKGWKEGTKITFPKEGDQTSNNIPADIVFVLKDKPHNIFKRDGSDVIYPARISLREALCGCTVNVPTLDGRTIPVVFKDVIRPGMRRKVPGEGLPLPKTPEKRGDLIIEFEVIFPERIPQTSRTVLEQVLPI
UniProt O95816: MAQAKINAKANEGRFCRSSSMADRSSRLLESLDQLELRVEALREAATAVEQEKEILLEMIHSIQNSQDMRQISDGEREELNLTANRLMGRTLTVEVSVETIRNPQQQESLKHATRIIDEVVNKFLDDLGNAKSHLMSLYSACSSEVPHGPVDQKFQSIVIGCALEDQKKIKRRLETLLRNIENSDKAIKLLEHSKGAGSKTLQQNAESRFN

T1: FLAG-tagged SMCR8 (Smith-Magenis Syndrome Chromosome Region, Candidate 8) (UniProt Q8TEV9)
T1 sequence: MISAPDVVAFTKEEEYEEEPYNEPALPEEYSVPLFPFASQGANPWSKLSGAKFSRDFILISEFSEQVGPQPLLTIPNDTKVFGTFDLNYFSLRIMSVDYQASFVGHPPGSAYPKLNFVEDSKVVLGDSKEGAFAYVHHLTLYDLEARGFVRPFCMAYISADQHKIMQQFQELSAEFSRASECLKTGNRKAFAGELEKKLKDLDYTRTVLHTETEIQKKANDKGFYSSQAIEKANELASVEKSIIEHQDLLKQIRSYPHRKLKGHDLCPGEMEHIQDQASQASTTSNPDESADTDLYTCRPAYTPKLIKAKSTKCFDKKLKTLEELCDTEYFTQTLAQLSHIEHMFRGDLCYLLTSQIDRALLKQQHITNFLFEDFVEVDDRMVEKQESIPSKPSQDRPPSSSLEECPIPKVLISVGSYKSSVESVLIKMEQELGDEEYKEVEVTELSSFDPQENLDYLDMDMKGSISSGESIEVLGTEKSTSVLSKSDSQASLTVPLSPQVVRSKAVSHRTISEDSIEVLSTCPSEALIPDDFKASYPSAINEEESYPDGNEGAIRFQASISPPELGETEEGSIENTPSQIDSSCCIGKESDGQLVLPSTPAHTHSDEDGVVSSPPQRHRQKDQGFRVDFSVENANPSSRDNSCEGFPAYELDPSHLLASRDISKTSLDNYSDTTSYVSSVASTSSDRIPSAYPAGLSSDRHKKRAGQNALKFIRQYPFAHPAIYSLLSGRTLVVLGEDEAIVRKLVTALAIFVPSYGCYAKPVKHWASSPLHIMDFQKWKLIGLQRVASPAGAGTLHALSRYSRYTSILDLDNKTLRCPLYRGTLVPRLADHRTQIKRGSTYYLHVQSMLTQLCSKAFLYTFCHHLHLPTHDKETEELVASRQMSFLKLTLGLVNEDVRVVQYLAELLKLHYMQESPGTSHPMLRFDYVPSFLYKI

B1: ANKRD28 (protein, UniProt O15084 1-1053)
chain: MAFLKLRDQPSLVQAIFNGDPDEVRALIFKKEDVNFQDNEKRTPLHAAAYLGDAEIIELLILSGARVNAKDSKWLTPLHRAVASCSEEAVQVLLKHSADVNARDKNWQTPLHIAAANKAVKCAEALVPLLSNVNVSDRAGRTALHHAAFSGHGEMVKLLLSRGANINAFDKKDRRAIHWAAYMGHIEVVKLLVSHGAEVTCKDKKSYTPLHAAASSGMISVVKYLLDLGVDMNEPNAYGNTPLHVACYNGQDVVVNELIDCGAIVNQKNEKGFTPLHFAAASTHGALCLELLVGNGADVNMKSKDGKTPLHMTALHGRFSRSQTIIQSGAVIDCEDKNGNTPLHIAARYGHELLINTLITSGADTAKRGIHGMFPLHLAALSGFSDCCRKLLSSGFDIDTPDDFGRTCLHAAAAGGNLECLNLLLNTGADFNKKDKFGRSPLHYAAANCNYQCLFALVGSGASVNDLDERGCTPLHYAATSDTDGKCLEYLLRNDANPGIRDKQGYNAVHYSAAYGHRLCLQLIASETPLDVLMETSGTDMLSDSDNRATISPLHLAAYHGHHQALEVLVQSLLDLDVRNSSGRTPLDLAAFKGHVECVDVLINQGASILVKDYILKRTPIHAAATNGHSECLRLLIGNAEPQNAVDIQDGNGQTPLMLSVLNGHTDCVYSLLNKGANVDAKDKWGRTALHRGAVTGHEECVDALLQHGAKCLLRDSRGRTPIHLSAACGHIGVLGALLQSAASMDANPATADNHGYTALHWACYNGHETCVELLLEQEVFQKTEGNAFSPLHCAVINDNEGAAEMLIDTLGASIVNATDSKGRTPLHAAAFTDHVECLQLLLSHNAQVNSVDSTGKTPLMMAAENGQTNTVEMLVSSASAELTLQDNSKNTALHLACSKGHETSALLILEKITDRNLINATNAALQTPLHVAARNGLTMVVQELLGKGASVLAVDENGYTPALACAPNKDVADCLALILATMMPVSSSSPLSSLTFNAINRYTNTSKTVSFEALPIMRNEPSSYCSFNNIGGEQEYLYTDVDELNDSDSETY
B2: ribophorin I (protein, UniProt P04843 24-607)
chain: ASSEAPPLINEDVKRTVDLSSHLAKVTAEVVLAHLGGGSTSRATSFLLALEPELEARLAHLGVQVKGEDEEENNLEVRETKIKGKSGRFFTVKLPVALDPGAKISVIVETVYTHVLHPYPTQITQSEKQFVVFEGNHYFYSPYPTKTQTMRVKLASRNVESYTKLGNPTRSEDLLDYGPFRDVPAYSQDTFKVHYENNSPFLTITSMTRVIEVSHWGNIAVEENVDLKHTGAVLKGPFSRYDYQRQPDSGISSIRSFKTILPAAAQDVYYRDEIGNVSTSHLLILDDSVEMEIRPRFPLFGGWKTHYIVGYNLPSYEYLYNLGDQYALKMRFVDHVFDEQVIDSLTVKIILPEGAKNIEIDSPYEISRAPDELHYTYLDTFGRPVIVAYKKNLVEQHIQDIVVHYTFNKVLMLQEPLLVVAAFYILFFTVIIYVRLDFSITKDPAAEARMKVACITEQVLTLVNKRIGLYRHFDETVNRYKQSRDISTLNSGKKSLETEHKALTSEIALLQSRLKTEGSDLCDRVSEMQKLDAQVKELVLKSAVEAERLVAGKLKKDTYIENEKLISGKRQELVTKIDHILDAL
B3: adaptor related proteincomplex 3 Mu 1 subunit (protein, UniProt Q9Y2T2 1-418)
chain: MIHSLFLINCSGDIFLEKHWKSVVSQSVCDYFFEAQEKAADVENVPPVISTPHHYLISIYRDKLFFVSVIQTEVPPLFVIEFLHRVADTFQDYFGECSEAAIKDNVVIVYELLEEMLDNGFPLATESNILKELIKPPTILRSVVNSITGSSNVGDTLPTGQLSNIPWRRAGVKYTNNEAYFDVVEEIDAIIDKSGSTVFAEIQGVIDACIKLSGMPDLSLSFMNPRLLDDVSFHPCIRFKRWESERVLSFIPPDGNFRLISYRVSSQNLVAIPVYVKHSISFKENSSCGRFDITIGPKQNMGKTIEGITVTVHMPKVVLNMNLTPTQGSYTFDPVTKVLTWDVGKITPQKLPSLKGLVNLQSGAPKPEENPSLNIQFKIQQLAISGLKVNRLDMYGEKYKPFKGVKYVTKAGKFQVRT

Each molecule was assayed against T1, FLAG-tagged SMCR8 (Smith-Magenis Syndrome Chromosome Region, Candidate 8) (assay: affinity purification with mass spectrometry; FL-SMCR8, C9orf72-FL or empty vector transfected in HEK 293T; α-FLAG agarose IP from whole cell lysates with or without RNase; LC-MS/MS; hits with three or more spectra and not detected in vector only control).

binding, binds:
major histocompatibility complex, class I, A (from UniProt P04439 25-365)
ring finger protein 2, , E3 ubiquitin protein ligase (from UniProt Q99496 1-336)
Parkinsonism associated deglycase (from UniProt Q99497 1-189)
proteasome 26S subunit, ATPase 1 (from UniProt P62191 1-440)
FK506 binding protein 8 (from UniProt Q14318 1-412)
mutS homolog 6(MSH6) (from UniProt P52701 1-1360)
dynein cytoplasmic 1 intermediate chain 2 (from UniProt Q13409 1-638)
heat shock protein family B member 1 (from UniProt P04792 1-205)
DOCK7 (from UniProt Q96N67 1-2140)
exportin 1 (from UniProt O14980 1-1071)
proteasome 26S subunit, non-ATPase 7 (from UniProt P51665 1-324)
midasin AAA ATPase 1 (from UniProt Q9NU22 1-5596)
chromodomain helicase DNA binding protein 4 (from UniProt Q14839 1-1912)
coatomer protein complex subunit alpha (from UniProt P53621 1-1224)
proteasome subunit alpha 5 (from UniProt P28066 1-241)
proteasome 26S subunit, non-ATPase 2 (from UniProt Q13200 1-908)
proteasome 26S subunit, non-ATPase 6 (from UniProt Q15008 1-389)
BCL2 associated athanogene 3 (from UniProt O95817 1-575)
cyclin dependent kinase inhibitor 2A (human (endogenous in HEK 293T))
SLC25A1 (from UniProt P53007 14-311)
proteasome 26S Subunit, ATPase 5 (from UniProt P62195 1-406)
DnaJ heat shock protein family (Hsp40) member B1 (from UniProt P25685 1-340)
nucleoporin 205 (from UniProt Q92621 1-2012)
tubulin beta 4A class IVa (from UniProt P04350 1-444)
solute carrier family 3 member 2 (from UniProt P08195 1-529)
proteasome 26S subunit, non-ATPase 14 (from UniProt O00487 1-310)
proteasome 26S subunit, ATPase 4 (from UniProt P43686 1-418)
prefoldin subunit 2 (from UniProt Q9UHV9 1-154)
PUM1 (from UniProt Q14671 1-1186)
GCN1, eIF2 alpha kinase activator homolog (from UniProt Q92616 1-2671)
SAMHD1 (from UniProt Q9Y3Z3 1-626)
BCL2 associated athanogene 2 (from UniProt O95816 1-211)
FMR1 autosomal homolog 2 (from UniProt P51116 1-673)
major histocompatibility complex, class I, B (from UniProt P01889 25-362)
ATXN2 (from UniProt Q99700 1-1313)
FUS (from UniProt P35637 1-526)
BCL2 associated athanogene 6 (from UniProt P46379 1-1132)
leucyl-tRNA synthetase (from UniProt Q9P2J5 1-1176)
proliferating cell nuclear antigen (from UniProt P12004 1-261)
B1
B2
B3
